# Laboratory results reported in PubChem BioAssay AID493014 (National Center for Advancing Translational Sciences (NCATS), 2011).
# Where “and” joins values, the source holds several entries; their conditions need not be identical. Equal entries are not always repeated. This is one part of the list. Shown are side measurements of this screen, not its main read-out; they come without a call. Most of these compounds were active or inconclusive in the main read-out, so they are no random draw. Potencies come from curve fits of mixed quality, noted in brackets.
# Assay: qHTS Assay to Find Inhibitors of Chronic Active B-Cell Receptor Signaling
# Details: ABC-DLBCL IkBa-CBG/CBR reporter, luminescence ratio (green luciferase fused to IkBa over red control in TMD8 lymphoma cells), 4 h
# Method in brief: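 TMD8 human ABC-DLBCL cells with doxycycline-inducible IκBα–green luciferase fusion and unfused red luciferase, in 0.5% FBS medium; compounds up to 46 uM, 4 h at 37C. Green/red luminescence ratio, filter-overlap corrected, fitted to concentration-response curves.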
# [1] = measured here: CBR red luminescence, cell number
SMILES,AC50 [1],AC50 (measured here: IkBa-CBG green luminescence)
CCc1nnc(NC(=O)c2cccc(S(=O)(=O)N3CC(c4ccccc4)CC3=O)c2)s1 (configuration not stated),"0.731 µM [falling, full curve, poor fit]",–
O=[N+]([O-])c1ccc(SCCc2ccncc2)cc1,"12.6 µM [rising, single point] and 7.08 µM [falling, partial curve, poor fit]",–
Cc1cccc(C)c1NC(=O)COC(=O)CN1C(=O)C2CCCCC2C1=O (configuration not stated),"14.6 µM [rising, partial curve]",–
CCn1c2ccccc2c2c3ncc4cccn4c3ccc21,"12.6 µM [rising, partial curve, poor fit]",–
CN1CCN(c2ccccc2NC(=O)c2ccc(OCc3ccccc3)cc2)CC1,"16.4 µM [falling, single point]",–
O=C(O)CCn1c2ccccc2c2nc3ccccc3nc21,–,"1 µM [rising, full curve, poor fit]"
CC(C)[C@H](NC(=O)N1c2ccccc2NC(=O)[C@@H]1C(C)C)C(=O)N[C@H](Cc1ccccc1)C(=O)O,"17.8 µM [falling, single point]",–
Cc1c(C(=O)N2CCNCC2)oc2ccccc12,"22.4 µM [falling, single point]",–
O=C(N/N=C/c1ccc([N+](=O)[O-])cc1)c1cccs1,"14.1 µM [falling, partial curve, poor fit]",–
CC(=O)Nc1ccc(S(=O)(=O)NC2=NCN(CCOC(=O)c3ccccc3)CN2)cc1,"0.0651 µM [rising, full curve, poor fit]",–
COc1ccccc1C(CNc1nc(C(F)(F)F)nc2ccccc12)N(C)C (configuration not stated),"11.2 µM [falling, partial curve, poor fit]",–
CC(C)(C)OC(=O)NC(Cc1ccccc1)C(=O)O (configuration not stated),"15.8 µM [falling, single point]",–
Cc1ccc(N(C)C(=O)N2CCN(S(=O)(=O)c3ccc(C)cc3)CC2)cc1,"1.84 µM [falling, single point]",–
Cc1cc(/C=N/Nc2ccc([N+](=O)[O-])cn2)c(C)n1-c1cccc(C(=O)O)c1,"22.4 µM [rising, single point]",–
COc1ccccc1OCC(O)Cn1c(=N)n(CCN2CCCCC2)c2ccccc21 (configuration not stated),"0.731 µM [falling, full curve, poor fit]",–
O=C(c1ccccc1)c1cccc(NC(=O)C2CC2)c1,"29.1 µM [rising, single point]",–
COc1ccc(/C=N/Nc2ncc(C(F)(F)F)cc2Cl)cc1OC,"3.66 µM [rising, full curve, poor fit]",–

# One compound at a time, from the list above. Order of values: AC50 [1] | AC50 (measured here: IkBa-CBG green luminescence)
# CC(=O)Nc1ccc(S(=O)(=O)NC2=NCN(CCOC(=O)c3ccccc3)CN2)cc1 reads 0.0651 µM [rising, full curve, poor fit] | –
# CCn1c2ccccc2c2c3ncc4cccn4c3ccc21 reads 12.6 µM [rising, partial curve, poor fit] | –
